Data taken from publication PMC3492284.
Results are given in words; binding and its absence hold for the method and conditions named. Binding seen in cells or lysates may run through a third protein. Where a sequence is shown, tags or fusion partners need not be part of it.

Biological target: T1, HA-epitope tagged Cbl-c, full length (UniProt Q9ULV8)
T1 sequence: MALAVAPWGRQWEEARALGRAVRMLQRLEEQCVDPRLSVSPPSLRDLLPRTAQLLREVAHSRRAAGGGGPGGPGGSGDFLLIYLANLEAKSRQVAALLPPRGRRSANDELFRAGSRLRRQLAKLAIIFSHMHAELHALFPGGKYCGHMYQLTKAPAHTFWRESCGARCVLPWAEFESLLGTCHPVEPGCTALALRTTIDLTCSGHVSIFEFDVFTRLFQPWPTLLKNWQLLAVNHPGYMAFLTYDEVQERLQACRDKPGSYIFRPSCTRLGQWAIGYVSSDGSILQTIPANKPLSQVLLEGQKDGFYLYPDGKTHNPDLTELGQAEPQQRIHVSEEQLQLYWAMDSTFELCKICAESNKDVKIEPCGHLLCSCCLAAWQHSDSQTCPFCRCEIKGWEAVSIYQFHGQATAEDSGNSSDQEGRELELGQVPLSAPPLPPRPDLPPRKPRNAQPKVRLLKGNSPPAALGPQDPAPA
Experiment: co-IP; HEK293T cells co-transfected; 200 µg lysate protein; HA-tagged Cbl proteins precipitated with HA-affinity matrix overnight at 4°C; lysis buffer 10 mM Tris-HCl pH 7.5, 150 mM NaCl, 5 mM EDTA, 1% Triton X-100, 10% glycerol; blot for Hic-5 or Trip-6

binding: no binding
Substance: Hic-5 deletion mutant removing LIM domains 2-4 (domain or fragment)
